Test results from the supplement of paper PMC10849652.
Some of the results follow.

Sequences of proteins named here, by UniProt entry; tags and fusion partners are left off. A change or cut given only in a name is not applied to a line headed by its entry.
UniProt Q8WUX1, whole entry, looked up: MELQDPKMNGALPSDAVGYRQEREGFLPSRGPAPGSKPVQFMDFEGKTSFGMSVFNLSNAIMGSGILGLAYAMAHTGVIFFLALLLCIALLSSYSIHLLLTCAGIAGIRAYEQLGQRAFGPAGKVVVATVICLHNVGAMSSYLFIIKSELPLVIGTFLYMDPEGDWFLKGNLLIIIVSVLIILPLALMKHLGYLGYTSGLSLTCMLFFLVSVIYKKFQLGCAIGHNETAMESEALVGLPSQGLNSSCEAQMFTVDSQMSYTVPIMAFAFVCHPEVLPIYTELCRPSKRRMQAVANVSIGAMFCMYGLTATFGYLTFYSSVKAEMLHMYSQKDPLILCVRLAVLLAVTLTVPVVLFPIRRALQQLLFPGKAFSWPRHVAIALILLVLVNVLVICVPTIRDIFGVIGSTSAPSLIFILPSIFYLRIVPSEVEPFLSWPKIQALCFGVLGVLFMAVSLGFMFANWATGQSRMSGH
UniProt P48067: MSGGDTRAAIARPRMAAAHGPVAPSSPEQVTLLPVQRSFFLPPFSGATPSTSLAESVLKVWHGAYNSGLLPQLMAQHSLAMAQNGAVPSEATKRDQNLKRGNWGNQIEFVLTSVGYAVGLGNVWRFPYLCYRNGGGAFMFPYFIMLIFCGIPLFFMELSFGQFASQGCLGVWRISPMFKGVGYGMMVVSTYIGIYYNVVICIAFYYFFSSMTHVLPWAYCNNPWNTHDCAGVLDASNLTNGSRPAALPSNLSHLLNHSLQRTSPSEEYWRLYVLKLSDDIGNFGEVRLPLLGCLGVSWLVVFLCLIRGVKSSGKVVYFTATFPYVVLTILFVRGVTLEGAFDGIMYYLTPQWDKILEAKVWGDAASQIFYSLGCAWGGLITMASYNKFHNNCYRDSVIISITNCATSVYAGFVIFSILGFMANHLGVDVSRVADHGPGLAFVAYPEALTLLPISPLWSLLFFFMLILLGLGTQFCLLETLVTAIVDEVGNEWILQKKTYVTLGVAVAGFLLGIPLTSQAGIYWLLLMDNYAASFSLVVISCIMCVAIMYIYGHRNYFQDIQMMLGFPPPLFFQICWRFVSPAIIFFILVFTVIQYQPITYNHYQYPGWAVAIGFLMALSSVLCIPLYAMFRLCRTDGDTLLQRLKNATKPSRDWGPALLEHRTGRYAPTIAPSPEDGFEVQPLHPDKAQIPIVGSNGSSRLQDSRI
UniProt Q99808: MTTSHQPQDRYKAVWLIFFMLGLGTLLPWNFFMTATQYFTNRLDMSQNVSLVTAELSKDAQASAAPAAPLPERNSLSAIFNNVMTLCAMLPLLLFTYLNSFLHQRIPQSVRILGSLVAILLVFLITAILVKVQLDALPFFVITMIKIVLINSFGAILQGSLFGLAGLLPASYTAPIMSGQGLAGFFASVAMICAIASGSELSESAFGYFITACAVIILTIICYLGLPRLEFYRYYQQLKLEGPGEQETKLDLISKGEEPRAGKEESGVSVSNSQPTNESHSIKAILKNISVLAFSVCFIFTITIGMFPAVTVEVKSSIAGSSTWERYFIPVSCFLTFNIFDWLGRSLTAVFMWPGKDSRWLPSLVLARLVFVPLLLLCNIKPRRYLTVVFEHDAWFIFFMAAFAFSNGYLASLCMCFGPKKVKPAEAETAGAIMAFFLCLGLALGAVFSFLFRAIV
UniProt Q9NP59: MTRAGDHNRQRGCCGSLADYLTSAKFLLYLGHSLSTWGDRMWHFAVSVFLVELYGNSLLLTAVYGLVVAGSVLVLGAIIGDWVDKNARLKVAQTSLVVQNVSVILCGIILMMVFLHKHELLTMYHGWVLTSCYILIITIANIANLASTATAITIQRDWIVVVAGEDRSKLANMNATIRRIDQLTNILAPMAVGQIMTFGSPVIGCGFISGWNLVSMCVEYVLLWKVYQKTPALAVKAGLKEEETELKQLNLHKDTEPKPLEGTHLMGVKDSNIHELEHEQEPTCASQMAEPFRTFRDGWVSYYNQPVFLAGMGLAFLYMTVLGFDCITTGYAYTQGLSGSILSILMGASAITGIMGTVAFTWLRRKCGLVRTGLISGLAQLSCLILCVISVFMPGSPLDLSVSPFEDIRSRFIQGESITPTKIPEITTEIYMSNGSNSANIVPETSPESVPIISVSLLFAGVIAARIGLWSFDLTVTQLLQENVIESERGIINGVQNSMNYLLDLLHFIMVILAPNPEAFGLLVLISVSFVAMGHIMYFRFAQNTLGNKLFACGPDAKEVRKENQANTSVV
UniProt O75746: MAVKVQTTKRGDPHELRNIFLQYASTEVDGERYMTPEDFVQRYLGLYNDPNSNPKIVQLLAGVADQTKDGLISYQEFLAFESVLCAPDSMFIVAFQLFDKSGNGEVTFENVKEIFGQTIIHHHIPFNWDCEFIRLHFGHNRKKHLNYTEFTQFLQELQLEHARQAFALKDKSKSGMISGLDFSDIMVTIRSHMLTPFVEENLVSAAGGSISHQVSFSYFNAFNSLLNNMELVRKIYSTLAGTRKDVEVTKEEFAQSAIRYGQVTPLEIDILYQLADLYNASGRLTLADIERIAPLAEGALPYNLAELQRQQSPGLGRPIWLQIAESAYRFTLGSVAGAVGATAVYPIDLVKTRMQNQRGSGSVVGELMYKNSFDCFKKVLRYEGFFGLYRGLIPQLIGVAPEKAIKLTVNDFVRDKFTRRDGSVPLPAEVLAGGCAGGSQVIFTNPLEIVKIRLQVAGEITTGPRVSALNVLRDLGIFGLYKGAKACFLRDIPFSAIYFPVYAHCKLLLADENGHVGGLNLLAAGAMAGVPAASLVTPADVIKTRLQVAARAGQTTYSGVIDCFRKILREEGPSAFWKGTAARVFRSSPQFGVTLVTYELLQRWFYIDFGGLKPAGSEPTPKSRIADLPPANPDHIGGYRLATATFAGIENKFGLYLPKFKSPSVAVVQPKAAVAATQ
UniProt Q9HC21: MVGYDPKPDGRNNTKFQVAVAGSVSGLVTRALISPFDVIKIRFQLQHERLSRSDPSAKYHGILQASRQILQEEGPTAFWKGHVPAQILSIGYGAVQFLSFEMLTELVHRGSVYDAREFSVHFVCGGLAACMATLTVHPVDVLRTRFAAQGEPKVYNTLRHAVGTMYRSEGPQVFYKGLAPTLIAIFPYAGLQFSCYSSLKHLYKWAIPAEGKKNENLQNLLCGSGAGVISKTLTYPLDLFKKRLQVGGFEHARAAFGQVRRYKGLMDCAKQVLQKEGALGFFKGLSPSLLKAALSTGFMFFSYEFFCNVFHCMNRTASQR
UniProt Q9UP95: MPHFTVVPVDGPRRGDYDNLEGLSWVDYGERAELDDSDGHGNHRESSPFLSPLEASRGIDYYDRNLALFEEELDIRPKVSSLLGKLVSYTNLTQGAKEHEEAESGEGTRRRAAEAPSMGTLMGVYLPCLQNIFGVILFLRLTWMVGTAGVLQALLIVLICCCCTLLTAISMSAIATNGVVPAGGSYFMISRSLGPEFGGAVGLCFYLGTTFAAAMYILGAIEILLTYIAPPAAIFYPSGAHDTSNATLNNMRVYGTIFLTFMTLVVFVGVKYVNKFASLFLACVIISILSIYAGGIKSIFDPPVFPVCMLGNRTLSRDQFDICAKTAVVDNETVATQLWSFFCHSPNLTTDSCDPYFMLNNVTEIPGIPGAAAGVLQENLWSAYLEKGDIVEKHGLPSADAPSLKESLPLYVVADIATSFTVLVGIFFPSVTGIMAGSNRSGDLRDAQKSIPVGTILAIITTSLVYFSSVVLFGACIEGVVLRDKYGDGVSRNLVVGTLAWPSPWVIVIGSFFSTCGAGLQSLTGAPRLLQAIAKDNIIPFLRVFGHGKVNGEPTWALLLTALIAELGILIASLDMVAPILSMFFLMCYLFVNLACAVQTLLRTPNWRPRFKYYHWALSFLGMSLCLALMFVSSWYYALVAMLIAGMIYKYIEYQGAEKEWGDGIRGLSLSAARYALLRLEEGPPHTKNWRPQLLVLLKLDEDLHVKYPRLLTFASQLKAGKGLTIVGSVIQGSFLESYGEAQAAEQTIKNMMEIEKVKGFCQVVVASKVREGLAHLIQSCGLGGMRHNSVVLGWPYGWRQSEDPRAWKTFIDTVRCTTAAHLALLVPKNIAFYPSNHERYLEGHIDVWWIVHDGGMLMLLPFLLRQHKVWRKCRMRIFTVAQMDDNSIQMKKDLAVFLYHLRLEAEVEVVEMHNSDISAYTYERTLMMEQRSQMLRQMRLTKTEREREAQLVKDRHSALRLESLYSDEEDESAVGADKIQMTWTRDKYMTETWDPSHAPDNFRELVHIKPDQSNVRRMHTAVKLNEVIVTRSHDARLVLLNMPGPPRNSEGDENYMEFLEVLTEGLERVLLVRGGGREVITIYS
UniProt Q6KCM7: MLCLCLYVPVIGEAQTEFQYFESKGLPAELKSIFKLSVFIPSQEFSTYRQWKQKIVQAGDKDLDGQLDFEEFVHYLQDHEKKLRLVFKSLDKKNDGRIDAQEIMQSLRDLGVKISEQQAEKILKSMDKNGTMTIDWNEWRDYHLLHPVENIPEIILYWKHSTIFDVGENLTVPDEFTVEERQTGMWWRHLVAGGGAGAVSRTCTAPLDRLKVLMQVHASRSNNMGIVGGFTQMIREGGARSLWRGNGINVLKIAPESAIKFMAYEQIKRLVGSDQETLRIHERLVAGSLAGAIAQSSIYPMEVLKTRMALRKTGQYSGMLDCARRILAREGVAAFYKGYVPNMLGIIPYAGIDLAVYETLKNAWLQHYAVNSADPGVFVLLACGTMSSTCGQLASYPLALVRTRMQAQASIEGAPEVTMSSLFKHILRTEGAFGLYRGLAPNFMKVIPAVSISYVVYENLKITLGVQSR
UniProt Q9HBR0: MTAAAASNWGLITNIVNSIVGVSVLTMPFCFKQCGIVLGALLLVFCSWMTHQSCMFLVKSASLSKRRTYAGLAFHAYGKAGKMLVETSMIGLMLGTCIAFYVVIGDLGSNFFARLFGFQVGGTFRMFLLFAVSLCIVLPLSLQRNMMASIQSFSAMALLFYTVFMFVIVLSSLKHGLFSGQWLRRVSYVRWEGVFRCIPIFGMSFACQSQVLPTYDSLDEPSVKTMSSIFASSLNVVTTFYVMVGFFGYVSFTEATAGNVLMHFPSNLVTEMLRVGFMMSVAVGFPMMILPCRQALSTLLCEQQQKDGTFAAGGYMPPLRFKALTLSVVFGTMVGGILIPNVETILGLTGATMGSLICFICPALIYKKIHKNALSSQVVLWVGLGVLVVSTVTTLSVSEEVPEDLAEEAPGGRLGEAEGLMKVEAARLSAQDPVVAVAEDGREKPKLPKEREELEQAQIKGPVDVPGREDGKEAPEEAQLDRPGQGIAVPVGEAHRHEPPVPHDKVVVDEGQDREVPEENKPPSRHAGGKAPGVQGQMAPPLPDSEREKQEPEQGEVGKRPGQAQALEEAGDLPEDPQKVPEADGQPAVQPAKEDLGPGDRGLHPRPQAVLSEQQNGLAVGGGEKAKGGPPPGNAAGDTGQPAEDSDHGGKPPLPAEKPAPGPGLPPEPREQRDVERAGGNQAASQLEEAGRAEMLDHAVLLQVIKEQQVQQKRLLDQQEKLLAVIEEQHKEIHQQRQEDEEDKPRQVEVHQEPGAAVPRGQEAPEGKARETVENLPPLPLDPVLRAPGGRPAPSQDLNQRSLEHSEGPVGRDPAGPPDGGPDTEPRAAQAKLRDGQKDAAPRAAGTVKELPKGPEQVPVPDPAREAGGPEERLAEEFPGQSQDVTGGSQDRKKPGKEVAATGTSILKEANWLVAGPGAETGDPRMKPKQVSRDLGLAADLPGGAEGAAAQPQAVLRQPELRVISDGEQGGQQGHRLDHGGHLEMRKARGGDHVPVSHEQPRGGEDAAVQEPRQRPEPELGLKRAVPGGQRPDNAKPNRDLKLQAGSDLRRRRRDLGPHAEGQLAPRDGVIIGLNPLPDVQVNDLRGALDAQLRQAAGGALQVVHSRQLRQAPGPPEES
UniProt P53007, whole entry, looked up: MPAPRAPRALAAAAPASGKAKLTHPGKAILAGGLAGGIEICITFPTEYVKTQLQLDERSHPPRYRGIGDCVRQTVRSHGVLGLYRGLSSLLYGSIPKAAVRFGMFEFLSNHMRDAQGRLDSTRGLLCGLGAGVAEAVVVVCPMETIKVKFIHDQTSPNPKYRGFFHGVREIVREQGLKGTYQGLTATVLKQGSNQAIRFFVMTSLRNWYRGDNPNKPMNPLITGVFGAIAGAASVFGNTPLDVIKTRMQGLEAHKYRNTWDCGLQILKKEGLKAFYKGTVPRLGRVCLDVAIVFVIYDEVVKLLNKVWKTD
UniProt Q9UBX3: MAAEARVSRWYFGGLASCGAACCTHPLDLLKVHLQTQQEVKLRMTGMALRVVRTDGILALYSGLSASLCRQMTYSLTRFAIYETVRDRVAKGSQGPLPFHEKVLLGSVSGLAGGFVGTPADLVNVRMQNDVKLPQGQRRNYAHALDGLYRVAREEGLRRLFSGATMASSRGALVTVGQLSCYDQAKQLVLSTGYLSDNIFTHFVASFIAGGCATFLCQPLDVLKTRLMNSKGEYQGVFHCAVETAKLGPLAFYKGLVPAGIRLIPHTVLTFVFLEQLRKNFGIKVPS

Assays:
Test in all cases: log2 fold change, soluble protein after heating vs DMSO (PISA); higher = thermal stabilisation; K562 cells, 10 uM, 30 min; active = over 0.2 and 3.5 SD of the protein, either way, in both replicates (recomputed)
saracatinib = compound: CN1CCN(CCOc2cc(OC3CCOCC3)c3c(Nc4c(Cl)ccc5c4OCO5)ncnc3c2)CC1 [saracatinib]
How it was run: (§1)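 Soluble protein was defined as the supernatant after 21,000xg for 90 min. It came from K562 cells at 2×10^6 cells/mL given 10 μM compound for 30 min, heated in aliquots for 3 min across 48°C-58°C, pooled, and extracted in PBS with 0.5% NP-40 at 4°C, and was quantified by TMTpro 16plex LC-MS/MS with equalised channel sums. Thermal stability against control samples, from duplicates, is reported as log2 fold change.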

sotrastaurin = compound: CN1CCN(c2nc(C3=C(c4c[nH]c5ccccc45)C(=O)NC3=O)c3ccccc3n2)CC1 [sotrastaurin]
How it was run: as §1

alvocidib = compound: CN1CC[C@H](c2c(O)cc(O)c3c(=O)cc(-c4ccccc4Cl)oc23)[C@H](O)C1 [alvocidib]
How it was run: as §1

Tubastatin A = compound: CN1CCc2c(c3ccccc3n2Cc2ccc(C(=O)NO)cc2)C1 [Tubastatin A]
How it was run: as §1

[1] = compound: CNC(=O)C1=CC=CC=C1NC2=NC(=NC=C2Cl)NC3=C(C=C(C=C3)N4CCOCC4)OC
How it was run: as §1

defactinib = compound: CNC(=O)c1ccc(Nc2ncc(C(F)(F)F)c(NCc3nccnc3N(C)S(C)(=O)=O)n2)cc1 [defactinib]
How it was run: as §1

rucaparib = compound: CNCc1ccc(-c2[nH]c3cc(F)cc4c3c2CCNC4=O)cc1 [rucaparib]
How it was run: as §1

[2] = compound: CNc1nc(-c2ccc3c(N)n[nH]c3c2)cc(N2C[C@@H](C(=O)NC3CCCCC3)CC[C@H]2C)n1
How it was run: as §1

encorafenib = compound: COC(=O)N[C@@H](C)CNc1nccc(-c2cn(C(C)C)nc2-c2cc(Cl)cc(NS(C)(=O)=O)c2F)n1 [encorafenib]
How it was run: as §1

[3] = compound: COC(=O)[C@H](CCSC)NC(=O)C1=C(C=C(C=C1)NC[C@H](CS)N)C2=CC=CC=C2
How it was run: as §1

[4] = compound: COC1=CC=C(C=C1)CN2C=CC3=C2C=C(C=C3)C(=O)NO
How it was run: as §1

filanesib = compound: CON(C)C(=O)N1N=C(c2cc(F)ccc2F)S[C@@]1(CCCN)c1ccccc1 [filanesib]
How it was run: as §1

zotarolimus = compound: CO[C@H]1C[C@@H]2CC[C@@H](C)[C@@](O)(O2)C(=O)C(=O)N2CCCC[C@H]2C(=O)O[C@H]([C@H](C)C[C@@H]2CC[C@H](n3cnnn3)[C@H](OC)C2)CC(=O)[C@H](C)/C=C(\C)[C@@H](O)[C@@H](OC)C(=O)[C@H](C)C[C@H](C)/C=C/C=C/C=C/1C [zotarolimus]
How it was run: as §1

idasanutlin = compound: COc1cc(C(=O)O)ccc1NC(=O)[C@@H]1N[C@@H](CC(C)(C)C)[C@](C#N)(c2ccc(Cl)cc2F)[C@H]1c1cccc(Cl)c1F [idasanutlin]
How it was run: as §1

alisertib = compound: COc1cc(Nc2ncc3c(n2)-c2ccc(Cl)cc2C(c2c(F)cccc2OC)=NC3)ccc1C(=O)O [alisertib]
How it was run: as §1

[5] = compound: COc1cc2nc(-c3cc(F)ccc3O)nc(N[C@@H]3CNC[C@H]3C(C)(C)O)c2cc1OC
How it was run: as §1

gefitinib = compound: COc1cc2ncnc(Nc3ccc(F)c(Cl)c3)c2cc1OCCCN1CCOCC1 [gefitinib]
How it was run: as §1

[6] = compound: COc1cccc2cc(-c3nc([C@H]4CC[C@H](C(=O)O)CC4)n4ncnc(N)c34)[nH]c12
How it was run: as §1

lapatinib = compound: CS(=O)(=O)CCNCc1ccc(-c2ccc3ncnc(Nc4ccc(OCc5cccc(F)c5)c(Cl)c4)c3c2)o1 [lapatinib]
How it was run: as §1

pictilisib = compound: CS(=O)(=O)N1CCN(Cc2cc3nc(-c4cccc5[nH]ncc45)nc(N4CCOCC4)c3s2)CC1 [pictilisib]
How it was run: as §1

Measured: log2 fold change

SLC38A5 (UniProt Q8WUX1)
inactive: saracatinib 0.036 | sotrastaurin 0.015 | alvocidib -0.01 | Tubastatin A -0.006 | [1] -0.08 | defactinib -0.063 | rucaparib -0.03 | [2] 0.05 | encorafenib 0.013 | [3] 0.017 | [4] -0.065 | filanesib -0.004 | zotarolimus -0.029 | idasanutlin 0.04 | alisertib -0.01 | [5] -0.03 | gefitinib -0.022 | [6] 0.122 | lapatinib -0.034 | pictilisib 0.078

SLC6A9 (UniProt P48067)
inactive: saracatinib 0.04 | sotrastaurin 0.037 | alvocidib -0.003 | Tubastatin A -0.082 | [1] -0.048 | defactinib -0.034 | rucaparib -0.071 | [2] 0.037 | encorafenib 0.009 | [3] 0.08 | [4] -0.18 | filanesib 0.041 | zotarolimus -0.048 | idasanutlin -0.101 | alisertib -0.045 | [5] 0.053 | gefitinib 0.002 | [6] 0.068 | lapatinib -0.103 | pictilisib 0.163

SLC45A4 isoform 3 (UniProt Q5BKX6)
inactive: saracatinib 0.043 | sotrastaurin -0.032 | alvocidib 0.053 | Tubastatin A -0.111 | [1] -0.068 | defactinib 0.004 | rucaparib 0.181 | [2] -0.058 | encorafenib 0.012 | [3] 0.048 | [4] 0.218 | filanesib -0.173 | zotarolimus -0.138 | idasanutlin -0.028 | alisertib -0.107 | [5] 0.005 | gefitinib 0.014 | [6] -0.009 | lapatinib -0.006 | pictilisib -0.01

SLC29A1 isoform 2 (UniProt Q99808)
inactive: saracatinib 0.024 | sotrastaurin 0.072 | alvocidib -0.015 | Tubastatin A -0.046 | [1] -0.034 | defactinib -0.084 | rucaparib -0.021 | [2] 0.069 | encorafenib -0.004 | [3] -0.01 | [4] 0.128 | filanesib 0.024 | zotarolimus 0.001 | idasanutlin -0.009 | alisertib -0.054 | [5] 0.092 | gefitinib 0.065 | [6] 0.118 | lapatinib 0.045 | pictilisib 0.092

SLC40A1 (UniProt Q9NP59)
inactive: saracatinib 0.042 | sotrastaurin 0.036 | alvocidib 0.067 | Tubastatin A -0.038 | [1] -0.001 | defactinib -0.05 | rucaparib 0.005 | [2] -0.037 | encorafenib 0.046 | [3] 0.201 | [4] 0.032 | filanesib -0.098 | zotarolimus 0.009 | idasanutlin 0.035 | alisertib -0.05 | [5] 0.006 | gefitinib 0.024 | [6] 0.124 | lapatinib -0.146 | pictilisib 0.03

SLC25A12 (UniProt O75746)
inactive: saracatinib 0.048 | sotrastaurin 0.058 | alvocidib 0.004 | Tubastatin A -0.029 | [1] -0.006 | defactinib -0.004 | rucaparib -0.05 | [2] -0.011 | encorafenib -0.021 | [3] -0.003 | [4] -0.01 | filanesib -0.023 | zotarolimus -0.025 | idasanutlin -0.019 | alisertib 0.084 | [5] 0.025 | gefitinib 0.003 | [6] 0.038 | lapatinib 0.009 | pictilisib 0.009

SLC25A19 (UniProt Q9HC21)
inactive: saracatinib 0.031 | sotrastaurin 0.037 | alvocidib 0 | Tubastatin A -0.092 | [1] 0.009 | defactinib -0.017 | rucaparib -0.025 | [2] -0.054 | encorafenib -0.033 | [3] 0.019 | [4] -0.035 | filanesib 0.012 | zotarolimus -0.05 | idasanutlin -0.018 | alisertib -0.007 | [5] 0.033 | gefitinib 0 | [6] 0.065 | lapatinib -0.007 | pictilisib -0.081

SLC12A4 (UniProt Q9UP95)
inactive: saracatinib 0.023 | sotrastaurin 0.008 | alvocidib -0.023 | Tubastatin A 0.023 | [1] 0.005 | defactinib 0.024 | rucaparib 0.028 | [2] -0.043 | encorafenib -0.007 | [3] 0.01 | [4] 0.116 | filanesib -0.066 | zotarolimus -0.012 | idasanutlin 0.021 | alisertib -0.032 | [5] -0.002 | gefitinib 0.017 | [6] 0.021 | lapatinib 0.002 | pictilisib 0.103

SLC25A25 isoform 3 (UniProt Q6KCM7)
inactive: saracatinib 0.022 | sotrastaurin 0.002 | alvocidib -0.004 | Tubastatin A -0.012 | [1] -0.021 | defactinib -0.033 | rucaparib -0.061 | [2] -0.051 | encorafenib 0.017 | [3] 0.001 | [4] 0.001 | filanesib -0.061 | zotarolimus -0.054 | idasanutlin -0.03 | alisertib -0.093 | [5] -0.037 | gefitinib -0.004 | [6] 0.053 | lapatinib 0.01 | pictilisib -0.012

SLC38A10 (UniProt Q9HBR0)
inactive: saracatinib 0.067 | sotrastaurin -0.096 | alvocidib -0.039 | Tubastatin A 0.018 | [1] 0.019 | defactinib 0.031 | rucaparib -0.007 | [2] -0.096 | encorafenib -0.04 | [3] 0.078 | [4] 0.088 | filanesib -0.09 | zotarolimus -0.009 | idasanutlin -0.004 | alisertib -0.001 | [5] -0.077 | gefitinib 0.058 | [6] 0.05 | lapatinib 0.119 | pictilisib 0.005

SLC29A2 (UniProt Q14542)
inactive: saracatinib 0.043 | sotrastaurin 0.012 | alvocidib 0.093 | Tubastatin A 0.017 | [1] -0.094 | defactinib -0.047 | rucaparib -0.102 | [2] 0.141 | encorafenib 0.006 | [3] 0.069 | [4] 0.047 | filanesib 0.046 | zotarolimus -0.047 | idasanutlin 0.007 | alisertib -0.072 | [5] 0.065 | gefitinib 0.042 | [6] 0.076 | lapatinib -0.047 | pictilisib 0.121

SLC25A1 (UniProt P53007)
inactive: saracatinib 0.079 | sotrastaurin 0.047 | alvocidib 0.023 | Tubastatin A -0.056 | [1] -0.008 | defactinib -0.002 | rucaparib -0.011 | [2] 0.002 | encorafenib -0.007 | [3] 0.03 | [4] 0.035 | filanesib 0.015 | zotarolimus -0.01 | idasanutlin -0.049 | alisertib -0.089 | [5] -0.051 | gefitinib -0.002 | [6] 0.03 | lapatinib 0.009 | pictilisib -0.122

SLC35B2 (UniProt Q8TB61)
inactive: saracatinib 0.016 | sotrastaurin -0.004 | alvocidib 0.018 | Tubastatin A -0.052 | [1] 0.041 | defactinib -0.053 | rucaparib 0.014 | [2] -0.056 | encorafenib -0.03 | [3] 0 | [4] 0.004 | filanesib -0.021 | zotarolimus -0.009 | idasanutlin -0.034 | alisertib -0.065 | [5] -0.004 | gefitinib 0.021 | [6] 0.053 | lapatinib 0.06 | pictilisib 0.001

SLC25A10 isoform 2 (UniProt Q9UBX3)
inactive: saracatinib 0.084 | sotrastaurin -0.003 | alvocidib -0.009 | Tubastatin A -0.008 | [1] -0.006 | defactinib -0.026 | rucaparib -0.016 | [2] 0.001 | encorafenib 0.017 | [3] 0.003 | [4] 0.055 | filanesib 0.009 | zotarolimus -0.033 | idasanutlin -0.002 | alisertib -0.055 | [5] -0.022 | gefitinib -0.015 | [6] 0.015 | lapatinib 0.049 | pictilisib -0.057

Two successive entries out of the list so far, for reference:
SLC29A1 isoform 2 (UniProt Q99808)
inactive: saracatinib 0.024 | sotrastaurin 0.072 | alvocidib -0.015 | Tubastatin A -0.046 | [1] -0.034 | defactinib -0.084 | rucaparib -0.021 | [2] 0.069 | encorafenib -0.004 | [3] -0.01 | [4] 0.128 | filanesib 0.024 | zotarolimus 0.001 | idasanutlin -0.009 | alisertib -0.054 | [5] 0.092 | gefitinib 0.065 | [6] 0.118 | lapatinib 0.045 | pictilisib 0.092

SLC40A1 (UniProt Q9NP59)
inactive: saracatinib 0.042 | sotrastaurin 0.036 | alvocidib 0.067 | Tubastatin A -0.038 | [1] -0.001 | defactinib -0.05 | rucaparib 0.005 | [2] -0.037 | encorafenib 0.046 | [3] 0.201 | [4] 0.032 | filanesib -0.098 | zotarolimus 0.009 | idasanutlin 0.035 | alisertib -0.05 | [5] 0.006 | gefitinib 0.024 | [6] 0.124 | lapatinib -0.146 | pictilisib 0.03

Carrying on:

SLC7A1 (UniProt P30825)
inactive: saracatinib 0.031 | sotrastaurin 0.059 | alvocidib 0.009 | Tubastatin A -0.033 | [1] -0.009 | defactinib -0.089 | rucaparib -0.014 | [2] -0.048 | encorafenib -0.006 | [3] 0.056 | [4] -0.056 | filanesib 0.002 | zotarolimus -0.049 | idasanutlin -0.005 | alisertib -0.041 | [5] -0.009 | gefitinib 0.011 | [6] 0.098 | lapatinib -0.002 | pictilisib 0.047

SLC39A7 (UniProt Q92504)
inactive: saracatinib 0 | sotrastaurin 0.057 | alvocidib 0.058 | Tubastatin A -0.012 | [1] -0.037 | defactinib 0.043 | rucaparib -0.013 | [2] -0.163 | encorafenib -0.006 | [3] 0.078 | [4] -0.004 | filanesib 0.027 | zotarolimus 0.009 | idasanutlin -0.01 | alisertib -0.033 | [5] -0.051 | gefitinib 0.031 | [6] 0.056 | lapatinib -0.071 | pictilisib 0.004
